For the assay, the target named is T1, SPPL2c (Signal peptide peptidase-like 2c), endogenous in murine testis (mouse (endogenous in testis)) (UniProt A2A6C4).
T1 sequence (chain, N-glycosylated at N106): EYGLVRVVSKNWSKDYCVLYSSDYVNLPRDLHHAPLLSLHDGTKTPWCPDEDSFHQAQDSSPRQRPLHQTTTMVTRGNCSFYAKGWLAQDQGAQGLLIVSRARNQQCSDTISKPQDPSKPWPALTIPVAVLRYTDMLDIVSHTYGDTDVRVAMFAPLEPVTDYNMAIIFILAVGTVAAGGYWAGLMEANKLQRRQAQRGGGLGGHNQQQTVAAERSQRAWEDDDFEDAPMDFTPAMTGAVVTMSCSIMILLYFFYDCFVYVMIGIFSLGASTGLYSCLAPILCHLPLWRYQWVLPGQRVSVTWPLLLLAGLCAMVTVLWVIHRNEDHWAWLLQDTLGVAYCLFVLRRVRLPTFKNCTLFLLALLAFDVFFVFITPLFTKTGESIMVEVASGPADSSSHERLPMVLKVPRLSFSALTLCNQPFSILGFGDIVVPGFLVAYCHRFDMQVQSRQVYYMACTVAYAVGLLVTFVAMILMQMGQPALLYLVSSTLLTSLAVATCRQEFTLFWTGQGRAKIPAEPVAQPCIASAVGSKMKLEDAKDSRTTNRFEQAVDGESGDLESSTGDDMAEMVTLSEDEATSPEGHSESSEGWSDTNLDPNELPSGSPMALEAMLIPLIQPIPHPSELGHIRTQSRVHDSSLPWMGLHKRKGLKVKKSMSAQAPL
The assay can be described thus: affinity purification with mass spectrometry; SPPL2c precipitated with anti-SPPL2c sepharose beads from testis lysates (0.5% DDM) of wild type or SPPL2c-deficient mice; on-bead digest, nanoLC-MS/MS.

No constants are given. Whether binding was seen depends on the method and setting. In cells and extracts the contact can be indirect. Here binding means that the protein was enriched with, or labelled near, the bait; the list need not be complete.

B1: calnexin, endogenous in murine testis (protein, UniProt P35564 21-591)
chain: HDGHDDDAIDIEDDLDDVIEEVEDSKSKSDASTPPSPKVTYKAPVPTGEVYFADSFDRGSLSGWILSKAKKDDTDDEIAKYDGKWEVDEMKETKLPGDKGLVLMSRAKHHAISAKLNKPFLFDTKPLIVQYEVNFQNGIECGGAYVKLLSKTAELSLDQFHDKTPYTIMFGPDKCGEDYKLHFIFRHKNPKTGVYEEKHAKRPDADLKTYFTDKKTHLYTLILNPDNSFEILVDQSVVNSGNLLNDMTPPVNPSREIEDPEDRKPEDWDERPKIADPDAVKPDDWDEDAPSKIPDEEATKPEGWLDDEPEYIPDPDAEKPEDWDEDMDGEWEAPQIANPKCESAPGCGVWQRPMIDNPNYKGKWKPPMIDNPNYQGIWKPRKIPNPDFFEDLEPFKMTPFSAIGLELWSMTSDIFFDNFIISGDRRVVDDWANDGWGLKKAADGAAEPGVVLQMLEAAEERPWLWVVYILTVALPVFLVILFCCSGKKQSNAMEYKKTDAPQPDVKDEEGKEEEKNKRDEEEEEEKLEEKQKSDAEEDGVTGSQDEEDSKPKAEEDEILNRSPRNRKPRRE
In the case of B1, the binding result is listed as “binds”.

(Values after paper PMC11513070.)
